# Data taken from PMC5589557.
# By UniProt entry, the sequences of proteins in these tests, tags left out.
# UniProt Q01196: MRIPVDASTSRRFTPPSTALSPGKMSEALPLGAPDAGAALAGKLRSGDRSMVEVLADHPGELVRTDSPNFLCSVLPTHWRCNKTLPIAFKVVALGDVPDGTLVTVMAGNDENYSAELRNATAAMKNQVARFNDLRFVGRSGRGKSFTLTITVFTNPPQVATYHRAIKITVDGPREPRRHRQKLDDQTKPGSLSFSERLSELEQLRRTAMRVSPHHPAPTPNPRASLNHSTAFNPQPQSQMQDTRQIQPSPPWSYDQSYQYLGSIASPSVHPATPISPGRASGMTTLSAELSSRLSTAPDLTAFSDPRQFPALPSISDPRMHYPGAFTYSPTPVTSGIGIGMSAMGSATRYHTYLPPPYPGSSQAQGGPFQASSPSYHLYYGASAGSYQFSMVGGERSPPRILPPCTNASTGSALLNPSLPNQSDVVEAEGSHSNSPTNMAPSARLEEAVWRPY
# UniProt P23769: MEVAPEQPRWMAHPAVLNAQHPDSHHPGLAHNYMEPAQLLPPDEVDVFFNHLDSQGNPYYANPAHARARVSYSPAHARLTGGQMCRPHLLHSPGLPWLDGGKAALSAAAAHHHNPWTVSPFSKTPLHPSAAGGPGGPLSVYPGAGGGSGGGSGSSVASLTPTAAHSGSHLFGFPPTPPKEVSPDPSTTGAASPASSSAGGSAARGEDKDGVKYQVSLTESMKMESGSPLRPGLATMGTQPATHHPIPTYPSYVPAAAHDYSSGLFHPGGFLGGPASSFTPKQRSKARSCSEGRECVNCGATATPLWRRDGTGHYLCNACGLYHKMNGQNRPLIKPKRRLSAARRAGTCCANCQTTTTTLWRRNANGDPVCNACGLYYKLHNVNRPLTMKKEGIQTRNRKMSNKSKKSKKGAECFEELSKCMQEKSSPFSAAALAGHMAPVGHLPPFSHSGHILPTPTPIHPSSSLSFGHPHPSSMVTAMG
# UniProt P08047: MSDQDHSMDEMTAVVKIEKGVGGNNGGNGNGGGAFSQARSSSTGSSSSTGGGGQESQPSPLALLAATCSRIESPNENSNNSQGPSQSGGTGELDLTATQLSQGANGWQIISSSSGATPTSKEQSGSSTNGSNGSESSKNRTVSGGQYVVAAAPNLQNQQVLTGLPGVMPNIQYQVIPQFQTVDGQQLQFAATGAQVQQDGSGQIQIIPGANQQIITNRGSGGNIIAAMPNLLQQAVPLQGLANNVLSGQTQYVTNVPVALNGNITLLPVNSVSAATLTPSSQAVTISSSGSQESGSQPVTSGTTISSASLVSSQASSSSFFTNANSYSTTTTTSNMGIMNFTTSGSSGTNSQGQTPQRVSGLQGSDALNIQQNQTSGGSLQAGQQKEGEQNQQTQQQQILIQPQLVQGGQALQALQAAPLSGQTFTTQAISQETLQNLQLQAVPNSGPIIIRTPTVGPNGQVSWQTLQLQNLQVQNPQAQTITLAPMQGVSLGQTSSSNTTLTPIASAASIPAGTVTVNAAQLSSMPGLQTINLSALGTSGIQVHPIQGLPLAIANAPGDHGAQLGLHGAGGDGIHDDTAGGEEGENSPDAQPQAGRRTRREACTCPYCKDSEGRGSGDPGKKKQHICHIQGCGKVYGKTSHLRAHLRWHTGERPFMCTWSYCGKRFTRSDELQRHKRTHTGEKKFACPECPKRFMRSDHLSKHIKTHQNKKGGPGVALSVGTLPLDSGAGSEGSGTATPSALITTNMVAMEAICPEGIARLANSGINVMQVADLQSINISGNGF
# UniProt P01106: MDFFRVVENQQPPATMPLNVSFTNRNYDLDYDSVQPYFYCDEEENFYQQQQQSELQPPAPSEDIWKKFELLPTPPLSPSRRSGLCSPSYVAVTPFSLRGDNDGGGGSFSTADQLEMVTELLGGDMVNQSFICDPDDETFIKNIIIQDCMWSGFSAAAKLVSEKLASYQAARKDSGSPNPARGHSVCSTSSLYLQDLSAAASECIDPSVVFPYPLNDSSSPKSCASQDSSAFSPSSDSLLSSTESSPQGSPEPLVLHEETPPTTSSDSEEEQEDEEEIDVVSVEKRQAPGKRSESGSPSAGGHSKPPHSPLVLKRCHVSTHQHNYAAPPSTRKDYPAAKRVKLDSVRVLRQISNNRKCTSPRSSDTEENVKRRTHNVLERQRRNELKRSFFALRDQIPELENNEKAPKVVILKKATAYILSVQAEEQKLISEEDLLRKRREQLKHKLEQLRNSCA
# No constants are given. Whether binding was seen depends on the method and setting. Binding seen in cells or lysates may run through a third protein. Some entries that bind do so weakly or less than the wild type.
# Tests used:
# Test in all cases: co-IP; endogenous proteins of HL-60 and HEL lysates; 1 mg protein with 5 ug antibody (anti-SP1, anti-RUNX1 or anti-GATA2) crosslinked to protein A/G-Dynabeads; co-IP buffer (PBS, 0.5% Triton X-100, 1 mM EDTA); irrelevant IgG as control; Western blot; anti-RUNX1 IP also in cells 48 h after siRNA against MYC or scramble siRNA
# [1] = biological target: RUNX1 (human (endogenous in HL-60 and HEL)) (UniProt Q01196)
# [2] = biological target: GATA2 (human (endogenous in HL-60 and HEL)) (UniProt P23769)
# [3] = biological target: SP1 (human (endogenous in HL-60 and HEL)) (UniProt P08047)
binding [1],binding [2],binding [3],Substance
binds,,,GATA2 (from UniProt P23769 1-480)
binds,binds,,MYC (from UniProt P01106 1-454)
,,binds,MYC (from UniProt P01106 1-454) (other; other documents disagree on this pair)
binds,binds,,SP1 (from UniProt P08047 1-785)
